{"source": "patent US20030133881A1", "about": "“Formulations for the remineralization of teeth” (priority 2001, published 2003)", "test": "1H NMR evaluation of oxidative consumption of salivary biomolecules by ozone", "conditions": "human saliva 0.60 ml, O3 for 30 seconds, 600 MHz 1H NMR", "data": [{"smiles": "O=[O+][O-]", "note": "[ozone]", "values": [{"measurement": "fate of salivary 3-D-hydroxybutyrate after O3 treatment", "result": "evidence for the O3-mediated oxidation of salivary 3-D-hydroxybutyrate"}, {"measurement": "fate of salivary methionine after O3 treatment", "result": "oxidation of the volatile sulphur compound precursor methionine to its corresponding sulphoxide"}, {"measurement": "fate of salivary polyunsaturated fatty acids after O3 treatment", "result": "oxidative consumption of salivary polyunsaturated fatty acids"}, {"measurement": "fate of salivary pyruvate after O3 treatment", "result": "oxidative decarboxylation of the salivary electron-donor pyruvate"}]}]}
